The data set can be described thus: general procedure: peptide synthesis; [4-(oxymethylphenylacetamidomethyl] resin loaded with Boc-alanine (B chain); p-benzyloxybenzyl resin (A chain). As to conditions: conjugation step.

Some peptides are written in HELM: one residue between dots, names in brackets for other building blocks, links after the first $.

On to “PEPTIDE1{Q.L.Y.S.A.L.A.N.K.C.C.H.V.G.C.T.K.R.S.L.A.R.F.C}|PEPTIDE2{D.S.W.M.E.E.V.I.K.L.C.G.R.E.L.V.R.A.Q.I.A.I.C.G.M.S.T.W.S}$PEPTIDE1,PEPTIDE1,10:R3-15:R3|PEPTIDE1,PEPTIDE2,11:R3-11:R3|PEPTIDE1,PEPTIDE2,24:R3-23:R3$$$V2.0”, for which the conjugation yield is reported as 78.3%.
